Assay results from patent US20210054365A1.
No constants are given. Whether binding was seen depends on the method and setting. Some binding calls cover weakened binding; strength is not graded here.

The chains behind the UniProt entries cited, without tags or fusion partners. Residues count along the entry.
UniProt Q16548, residues 1-153: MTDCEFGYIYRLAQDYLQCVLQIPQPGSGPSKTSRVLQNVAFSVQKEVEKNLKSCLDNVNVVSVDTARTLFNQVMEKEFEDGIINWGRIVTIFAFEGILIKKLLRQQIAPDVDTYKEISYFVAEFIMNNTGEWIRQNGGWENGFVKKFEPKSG
UniProt P10415, residues 1-207: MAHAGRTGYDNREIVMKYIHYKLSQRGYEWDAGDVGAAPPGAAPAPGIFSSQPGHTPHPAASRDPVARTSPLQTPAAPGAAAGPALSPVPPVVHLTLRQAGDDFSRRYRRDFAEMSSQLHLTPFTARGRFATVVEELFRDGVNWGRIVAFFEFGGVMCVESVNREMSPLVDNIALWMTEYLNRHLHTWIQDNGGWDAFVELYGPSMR

What was measured:
[1] = molecular target: Bfl1 (UniProt Q16548); assay: one-pot batched yeast mating, barcode sequencing
[2] = molecular target: Bcl2 (UniProt P10415); assay: one-pot batched yeast mating, barcode sequencing

In the case of PAELEVECATQLRRFGDKLNFRQKLL (peptide, UniProt Q13794 18-43, looked up) [Noxa.BH3], the binding [1] is reported as “binds”.

With NLWAAQRYGRELRRMSDEFVDSFKK (peptide, UniProt Q92934 103-127, looked up) [Bad.BH3] the binding [2] was “binds”.
